Laboratory results taken from publication doi:10.1101/2023.12.03.569805.
No constants are given. Whether binding was seen depends on the method and setting. In cells and extracts the contact can be indirect. Here binding means that the protein was enriched with, or labelled near, the bait; the list need not be complete. Sequences can lack the tags named with a protein.

Protein sequences, listed by entry. Tags and fused reporters are not part of them.
UniProt Q92793: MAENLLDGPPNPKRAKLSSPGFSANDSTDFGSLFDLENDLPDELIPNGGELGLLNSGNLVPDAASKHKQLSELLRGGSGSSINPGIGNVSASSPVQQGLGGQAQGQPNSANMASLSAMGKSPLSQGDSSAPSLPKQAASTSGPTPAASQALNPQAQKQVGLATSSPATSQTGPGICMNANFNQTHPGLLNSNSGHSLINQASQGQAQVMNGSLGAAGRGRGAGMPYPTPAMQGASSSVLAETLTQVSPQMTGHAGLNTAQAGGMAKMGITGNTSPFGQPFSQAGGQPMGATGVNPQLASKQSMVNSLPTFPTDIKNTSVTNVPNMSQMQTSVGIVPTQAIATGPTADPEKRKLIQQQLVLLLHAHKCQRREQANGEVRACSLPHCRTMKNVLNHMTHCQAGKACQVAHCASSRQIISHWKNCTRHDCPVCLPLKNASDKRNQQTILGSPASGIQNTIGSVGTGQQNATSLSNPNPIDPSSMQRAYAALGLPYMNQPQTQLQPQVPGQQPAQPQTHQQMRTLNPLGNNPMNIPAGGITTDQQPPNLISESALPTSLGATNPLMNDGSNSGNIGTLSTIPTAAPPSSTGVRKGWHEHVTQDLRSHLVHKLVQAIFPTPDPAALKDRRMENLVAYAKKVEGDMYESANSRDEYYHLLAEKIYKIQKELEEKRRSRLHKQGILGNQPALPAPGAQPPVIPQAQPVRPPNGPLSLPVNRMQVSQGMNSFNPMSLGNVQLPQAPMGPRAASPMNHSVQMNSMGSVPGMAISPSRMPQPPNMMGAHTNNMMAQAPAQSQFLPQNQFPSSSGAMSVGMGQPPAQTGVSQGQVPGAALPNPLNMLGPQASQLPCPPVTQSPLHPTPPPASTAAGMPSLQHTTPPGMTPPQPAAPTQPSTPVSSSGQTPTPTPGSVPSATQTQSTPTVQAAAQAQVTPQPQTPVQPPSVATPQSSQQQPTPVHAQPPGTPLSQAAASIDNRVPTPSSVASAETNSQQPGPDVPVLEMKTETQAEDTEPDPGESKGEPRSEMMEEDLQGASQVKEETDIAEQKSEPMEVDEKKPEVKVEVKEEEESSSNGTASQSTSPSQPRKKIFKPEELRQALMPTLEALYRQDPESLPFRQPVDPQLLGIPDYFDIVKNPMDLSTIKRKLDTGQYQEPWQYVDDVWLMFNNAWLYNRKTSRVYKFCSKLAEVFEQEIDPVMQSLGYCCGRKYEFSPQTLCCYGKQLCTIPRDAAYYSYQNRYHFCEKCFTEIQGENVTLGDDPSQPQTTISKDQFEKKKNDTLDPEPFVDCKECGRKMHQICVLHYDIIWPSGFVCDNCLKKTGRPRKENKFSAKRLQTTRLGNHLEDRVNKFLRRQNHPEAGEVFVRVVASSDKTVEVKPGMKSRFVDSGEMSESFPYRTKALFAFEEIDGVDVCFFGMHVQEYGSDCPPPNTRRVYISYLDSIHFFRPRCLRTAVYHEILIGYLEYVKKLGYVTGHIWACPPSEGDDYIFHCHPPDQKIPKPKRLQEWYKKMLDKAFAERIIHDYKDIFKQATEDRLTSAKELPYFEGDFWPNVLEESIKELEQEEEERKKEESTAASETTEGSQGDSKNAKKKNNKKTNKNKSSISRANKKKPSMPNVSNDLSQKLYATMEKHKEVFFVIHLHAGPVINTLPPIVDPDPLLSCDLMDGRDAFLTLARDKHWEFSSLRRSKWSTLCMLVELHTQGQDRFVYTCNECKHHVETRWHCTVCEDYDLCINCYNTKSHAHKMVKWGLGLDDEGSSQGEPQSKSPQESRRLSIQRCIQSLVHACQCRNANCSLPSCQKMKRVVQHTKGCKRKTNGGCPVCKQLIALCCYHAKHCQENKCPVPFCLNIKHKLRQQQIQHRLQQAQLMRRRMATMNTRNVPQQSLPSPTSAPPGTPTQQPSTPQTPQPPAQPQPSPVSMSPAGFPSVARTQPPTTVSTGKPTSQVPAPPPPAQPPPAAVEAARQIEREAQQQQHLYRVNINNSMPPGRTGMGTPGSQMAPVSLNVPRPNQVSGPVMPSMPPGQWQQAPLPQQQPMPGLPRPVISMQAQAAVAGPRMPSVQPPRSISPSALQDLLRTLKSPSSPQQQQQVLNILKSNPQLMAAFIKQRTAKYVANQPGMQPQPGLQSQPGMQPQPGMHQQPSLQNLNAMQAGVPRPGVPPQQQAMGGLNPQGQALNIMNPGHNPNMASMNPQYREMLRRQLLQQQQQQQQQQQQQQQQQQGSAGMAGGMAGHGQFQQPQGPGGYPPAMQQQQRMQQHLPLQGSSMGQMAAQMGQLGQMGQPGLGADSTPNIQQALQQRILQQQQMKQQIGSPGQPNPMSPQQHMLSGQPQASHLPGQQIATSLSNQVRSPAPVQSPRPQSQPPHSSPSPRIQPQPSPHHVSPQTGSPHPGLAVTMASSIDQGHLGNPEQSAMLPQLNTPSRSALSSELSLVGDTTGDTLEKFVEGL

T1: FLAG-tagged DCAF7 (UniProt P61962)
T1 sequence: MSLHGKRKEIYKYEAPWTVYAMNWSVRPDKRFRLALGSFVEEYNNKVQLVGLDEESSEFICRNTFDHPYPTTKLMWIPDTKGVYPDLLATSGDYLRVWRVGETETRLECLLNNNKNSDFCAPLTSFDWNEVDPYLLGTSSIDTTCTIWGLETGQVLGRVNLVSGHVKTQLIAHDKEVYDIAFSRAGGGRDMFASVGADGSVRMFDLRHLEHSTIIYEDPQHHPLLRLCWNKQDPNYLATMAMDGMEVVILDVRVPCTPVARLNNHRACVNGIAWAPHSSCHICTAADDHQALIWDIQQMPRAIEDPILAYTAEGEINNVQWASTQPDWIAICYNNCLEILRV


Target: T1, FLAG-tagged DCAF7
Assay: affinity purification with mass spectrometry

binding	Molecule
binds	CREBBP (from UniProt Q92793 1-2442)
binds	TSC1 (protein, UniProt Q92574 1-1164) MAQQANVGELLAMLDSPMLGVRDDVTAVFKENLNSDRGPMLVNTLVDYYLETSSQPALHILTTLQEPHDKHLLDRINEYVGKAATRLSILSLLGHVIRLQPSWKHKLSQAPLLPSLLKCLKMDTDVVVLTTGVLVLITMLPMIPQSGKQHLLDFFDIFGRLSSWCLKKPGHVAEVYLVHLHASVYALFHRLYGMYPCNFVSFLRSHYSMKENLETFEEVVKPMMEHVRIHPELVTGSKDHELDPRRWKRLETHDVVIECAKISLDPTEASYEDGYSVSHQISARFPHRSADVTTSPYADTQNSYGCATSTPYSTSRLMLLNMPGQLPQTLSSPSTRLITEPPQATLWSPSMVCGMTTPPTSPGNVPPDLSHPYSKVFGTTAGGKGTPLGTPATSPPPAPLCHSDDYVHISLPQATVTPPRKEERMDSARPCLHRQHHLLNDRGSEEPPGSKGSVTLSDLPGFLGDLASEEDSIEKDKEEAAISRELSEITTAEAEPVVPRGGFDSPFYRDSLPGSQRKTHSAASSSQGASVNPEPLHSSLDKLGPDTPKQAFTPIDLPCGSADESPAGDRECQTSLETSIFTPSPCKIPPPTRVGFGSGQPPPYDHLFEVALPKTAHHFVIRKTEELLKKAKGNTEEDGVPSTSPMEVLDRLIQQGADAHSKELNKLPLPSKSVDWTHFGGSPPSDEIRTLRDQLLLLHNQLLYERFKRQQHALRNRRLLRKVIKAAALEEHNAAMKDQLKLQEKDIQMWKVSLQKEQARYNQLQEQRDTMVTKLHSQIRQLQHDREEFYNQSQELQTKLEDCRNMIAELRIELKKANNKVCHTELLLSQVSQKLSNSESVQQQMEFLNRQLLVLGEVNELYLEQLQNKHSDTTKEVEMMKAAYRKELEKNRSHVLQQTQRLDTSQKRILELESHLAKKDHLLLEQKKYLEDVKLQARGQLQAAESRYEAQKRITQVFELEILDLYGRLEKDGLLKKLEEEKAEAAEAAEERLDCCNDGCSDSMVGHNEEASGHNGETKTPRPSSARGSSGSRGGGGSSSSSSELSTPEKPPHQRAGPFSSRWETTMGEASASIPTTVGSLPSSKSFLGMKARELFRNKSESQCDEDGMTSSLSESLKTELGKDLGVEAKIPLNLDGPHPSPPTPDSVGQLHIMDYNETHHEHS
binds	KIAA0232 (endogenous prey) (protein, UniProt Q92628 1-1395) MYPICTVVVDGLPSESSSSSYPGPVSVSEMSLLHALGPVQTWLGQELEKCGIDAMIYTRYVLSLLLHDSYDYDLQEQENDIFLGWEKGAYKKWGKSKKKCSDLTLEEMKKQAAVQCLRSASDESSGIETLVEELCSRLKDLQSKQEEKIHKKLEGSPSPEAELSPPAKDQVEMYYEAFPPLSEKPVCLQEIMTVWNKSKVCSYSSSSSSSTAPPASTDTSSPKDCNSESEVTKERSSEVPTTVHEKTQSKSKNEKENKFSNGTIEEKPALYKKQIRHKPEGKIRPRSWSSGSSEAGSSSSGNQGELKASMKYVKVRHKAREIRNKKGRNGQSRLSLKHGEKAERNIHTGSSSSSSSGSVKQLCKRGKRPLKEIGRKDPGSTEGKDLYMENRKDTEYKEEPLWYTEPIAEYFVPLSRKSKLETTYRNRQDTSDLTSEAVEELSESVHGLCISNNNLHKTYLAAGTFIDGHFVEMPAVINEDIDLTGTSLCSLPEDNKYLDDIHLSELTHFYEVDIDQSMLDPGASETMQGESRILNMIRQKSKENTDFEAECCIVLDGMELQGERAIWTDSTSSVGAEGLFLQDLGNLAQFWECCSSSSGDADGESFGGDSPVRLSPILDSTVLNSHLLAGNQELFSDINEGSGINSCFSVFEVQCSNSVLPFSFETLNLGNENTDSSANMLGKTQSRLLIWTKNSAFEENEHCSNLSTRTCSPWSHSEETRSDNETLNIQFEESTQFNAEDINYVVPRVSSNYVDEELLDFLQDETCQQNSRTLGEIPTLVFKKTSKLESVCGIQLEQKTENKNFETTQVCNESPHGDGYSSGVIKDIWTKMADTNSVATVEIERTDAELFSADVNNYCCCLDAEAELETLQEPDKAVRRSEYHLWEGQKESLEKRAFASSELSNVDGGDYTTPSKPWDVAQDKENTFILGGVYGELKTFNSDGEWAVVPPSHTKGSLLQCAASDVVTIAGTDVFMTPGNSFAPGHRQLWKPFVSFEQNDQPKSGENGLNKGFSFIFHEDLLGACGNFQVEDPGLEYSFSSFDLSNPFSQVLHVECSFEPEGIASFSPSFKPKSILCSDSDSEVFHPRICGVDRTQYRAIRISPRTHFRPISASELSPGGGSESEFESEKDEANIPIPSQVDIFEDPQADLKPLEEDAEKEGHYYGKSELESGKFLPRLKKSGMEKSAQTSLDSQEESTGILSVGKQNQCLECSMNESLEIDLESSEANCKIMAQCEEEINNFCGCKAGCQFPAYEDNPVSSGQLEEFPVLNTDIQGMNRSQEKQTWWEKALYSPLFPASECEECYTNAKGESGLEEYPDAKETPSNEERLLDFNRVSSVYEARCTGERDSGAKSDGFRGKMCSSASSTSEETGSEGGGEWVGPSEEELFSRTHL
